Assay results published in patent EP4847492A1, “USE OF SALT FORMS OF COMPOUND AND CRYSTAL FORMS THEREOF IN TREATMENT OF HEART FAILURE WITH PRESERVED EJECTION FRACTION” (dated 2026).

Tests used:
[1] = Preliminary physical stability, open storage at 25°C/60% RH and 25°C/80% RH
[2] = Solubility at 37°C in water, buffer and simulated biological fluids (2 h, 24 h)
[3] = Solid stability, 25°C/92.5%RH open and 60°C closed, 1 week (XRPD, HPLC, color); set-up: CL (color): key to the marks not given beside the values; conditions: for Solid (XRPD): crystal form after storage
[4] = 25°C/92.5%RH, open storage conditions

O=C(O)CCc1cc(C(=O)c2ccc(OC3CCCC3)cc2O)ccc1OCc1ccc2c(O)noc2c1 [Betaine salt Form A]
moisture absorption and color change of the solid ([1]; 25°C/60%RH, open storage for 3 days): No significant moisture absorption of the solid; no significant color change.
moisture absorption and color change of the solid ([1]; 25°C/80%RH, open storage for 2 days): No significant moisture absorption of the solid; no significant color change.
pH of the supernatant 24h ([2]; FaSSGF, pH 1.6, 37°C): 1.5
pH of the supernatant 24h ([2]; FaSSIF-v1, pH 6.5, 37°C): 6.3
pH of the supernatant 24h ([2]; FeSSIF-v1, pH 5.0, 37°C): 4.9
pH of the supernatant 24h ([2]; Water, 37°C): 7.4
CL (color) [3, 4]: A
Solid (HPLC) Purity [3, 4]: 98.7%
Solid (XRPD) [3, 4]: Betaine salt Form A
CL (color) ([3]; 60°C, closed container): A
Solid (HPLC) Purity ([3]; 60°C, closed container): 98.7%
Solid (XRPD) ([3]; 60°C, closed container): Betaine salt Form A

Where a name gives a salt, the structure may show the parent alone. The match of structure and compound is tentative.
